Experimental data: the supplement of paper PMC11732987, “Enantioselective OTUD7B fragment discovery through chemoproteomics screening and high-throughput optimisation” (Communications Chemistry, 2025)
The list shows a part of the results. The data scatter; read single values as rough.

Amino acid sequences for entries named in this document (tags omitted). A change or cut given only in a name is not applied to a line headed by its entry. Residues count along the entry.
UniProt Q86UT6: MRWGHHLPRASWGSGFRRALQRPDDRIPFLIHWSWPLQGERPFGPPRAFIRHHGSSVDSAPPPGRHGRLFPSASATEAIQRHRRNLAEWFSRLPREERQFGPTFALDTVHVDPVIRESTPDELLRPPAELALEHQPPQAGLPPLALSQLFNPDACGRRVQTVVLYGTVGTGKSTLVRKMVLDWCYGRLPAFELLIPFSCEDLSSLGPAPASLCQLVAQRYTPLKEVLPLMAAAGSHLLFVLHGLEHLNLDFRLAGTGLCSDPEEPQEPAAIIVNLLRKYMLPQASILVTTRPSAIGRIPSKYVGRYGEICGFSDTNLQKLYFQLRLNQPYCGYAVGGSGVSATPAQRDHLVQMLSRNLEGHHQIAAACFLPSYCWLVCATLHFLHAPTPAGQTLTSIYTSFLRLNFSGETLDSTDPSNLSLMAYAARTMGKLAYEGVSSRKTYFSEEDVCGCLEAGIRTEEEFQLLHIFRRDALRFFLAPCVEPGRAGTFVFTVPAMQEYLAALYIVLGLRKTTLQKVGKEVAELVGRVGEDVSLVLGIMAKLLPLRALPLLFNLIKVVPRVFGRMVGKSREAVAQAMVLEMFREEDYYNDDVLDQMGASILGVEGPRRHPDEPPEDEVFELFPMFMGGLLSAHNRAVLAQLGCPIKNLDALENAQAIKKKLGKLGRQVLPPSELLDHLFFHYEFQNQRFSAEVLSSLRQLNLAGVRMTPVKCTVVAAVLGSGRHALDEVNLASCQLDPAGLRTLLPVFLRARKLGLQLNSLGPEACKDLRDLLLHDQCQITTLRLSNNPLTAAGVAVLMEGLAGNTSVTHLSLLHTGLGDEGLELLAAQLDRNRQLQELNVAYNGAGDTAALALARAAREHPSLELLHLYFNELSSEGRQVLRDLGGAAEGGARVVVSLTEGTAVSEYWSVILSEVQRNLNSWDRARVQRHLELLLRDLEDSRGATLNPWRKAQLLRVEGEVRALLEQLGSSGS
UniProt Q9Y6Q9: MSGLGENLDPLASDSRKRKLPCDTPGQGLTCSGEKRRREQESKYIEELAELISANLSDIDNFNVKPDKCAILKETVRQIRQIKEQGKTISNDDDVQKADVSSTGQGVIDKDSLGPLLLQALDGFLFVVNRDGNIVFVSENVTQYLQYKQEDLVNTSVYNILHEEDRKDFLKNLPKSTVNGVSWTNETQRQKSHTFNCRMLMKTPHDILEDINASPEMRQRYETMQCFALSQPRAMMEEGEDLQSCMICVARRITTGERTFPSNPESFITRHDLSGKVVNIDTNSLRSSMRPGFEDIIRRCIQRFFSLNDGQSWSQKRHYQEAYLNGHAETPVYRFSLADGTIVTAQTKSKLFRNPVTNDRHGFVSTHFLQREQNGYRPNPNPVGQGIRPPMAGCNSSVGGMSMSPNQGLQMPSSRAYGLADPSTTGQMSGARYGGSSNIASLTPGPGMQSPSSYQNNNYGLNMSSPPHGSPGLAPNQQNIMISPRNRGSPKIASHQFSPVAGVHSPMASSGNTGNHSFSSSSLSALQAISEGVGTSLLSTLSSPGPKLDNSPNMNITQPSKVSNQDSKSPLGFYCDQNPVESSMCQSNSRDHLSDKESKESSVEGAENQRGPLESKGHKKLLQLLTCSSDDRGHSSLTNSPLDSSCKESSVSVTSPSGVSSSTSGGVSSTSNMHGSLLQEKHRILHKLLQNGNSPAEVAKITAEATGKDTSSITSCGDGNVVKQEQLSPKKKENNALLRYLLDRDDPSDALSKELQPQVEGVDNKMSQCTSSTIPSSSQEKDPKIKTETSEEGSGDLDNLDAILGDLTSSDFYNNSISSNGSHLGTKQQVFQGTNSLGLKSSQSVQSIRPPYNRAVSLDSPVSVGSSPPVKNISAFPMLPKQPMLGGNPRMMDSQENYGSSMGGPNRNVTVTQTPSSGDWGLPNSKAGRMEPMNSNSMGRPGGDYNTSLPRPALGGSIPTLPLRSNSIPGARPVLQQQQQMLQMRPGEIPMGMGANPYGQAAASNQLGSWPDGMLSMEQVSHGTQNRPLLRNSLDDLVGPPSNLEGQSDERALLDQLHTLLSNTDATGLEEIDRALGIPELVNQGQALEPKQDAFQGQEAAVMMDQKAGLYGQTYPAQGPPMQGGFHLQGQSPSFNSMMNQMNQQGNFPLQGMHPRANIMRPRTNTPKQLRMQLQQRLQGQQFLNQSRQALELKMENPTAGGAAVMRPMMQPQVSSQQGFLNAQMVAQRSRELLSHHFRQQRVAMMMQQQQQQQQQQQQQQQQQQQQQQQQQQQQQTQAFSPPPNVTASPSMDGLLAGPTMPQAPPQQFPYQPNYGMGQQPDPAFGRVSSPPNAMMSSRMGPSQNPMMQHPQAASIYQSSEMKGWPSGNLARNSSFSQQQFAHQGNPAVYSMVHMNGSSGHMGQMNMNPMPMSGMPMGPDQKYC
UniProt Q7Z628: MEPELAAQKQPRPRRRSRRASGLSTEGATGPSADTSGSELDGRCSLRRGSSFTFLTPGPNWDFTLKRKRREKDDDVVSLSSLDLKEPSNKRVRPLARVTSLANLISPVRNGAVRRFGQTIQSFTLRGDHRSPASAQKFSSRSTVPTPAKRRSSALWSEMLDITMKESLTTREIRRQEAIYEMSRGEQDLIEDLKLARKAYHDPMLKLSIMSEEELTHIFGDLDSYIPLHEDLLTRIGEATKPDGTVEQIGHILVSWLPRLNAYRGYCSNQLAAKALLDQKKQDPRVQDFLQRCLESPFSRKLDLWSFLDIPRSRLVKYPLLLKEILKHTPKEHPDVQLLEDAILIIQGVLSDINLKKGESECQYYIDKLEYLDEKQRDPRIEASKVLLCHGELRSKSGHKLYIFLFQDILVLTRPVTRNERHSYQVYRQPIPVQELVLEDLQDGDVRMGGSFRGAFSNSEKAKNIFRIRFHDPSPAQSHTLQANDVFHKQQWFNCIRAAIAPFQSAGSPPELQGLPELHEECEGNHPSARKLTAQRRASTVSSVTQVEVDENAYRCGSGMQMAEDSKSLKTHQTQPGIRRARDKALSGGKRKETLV
UniProt Q5SYE7: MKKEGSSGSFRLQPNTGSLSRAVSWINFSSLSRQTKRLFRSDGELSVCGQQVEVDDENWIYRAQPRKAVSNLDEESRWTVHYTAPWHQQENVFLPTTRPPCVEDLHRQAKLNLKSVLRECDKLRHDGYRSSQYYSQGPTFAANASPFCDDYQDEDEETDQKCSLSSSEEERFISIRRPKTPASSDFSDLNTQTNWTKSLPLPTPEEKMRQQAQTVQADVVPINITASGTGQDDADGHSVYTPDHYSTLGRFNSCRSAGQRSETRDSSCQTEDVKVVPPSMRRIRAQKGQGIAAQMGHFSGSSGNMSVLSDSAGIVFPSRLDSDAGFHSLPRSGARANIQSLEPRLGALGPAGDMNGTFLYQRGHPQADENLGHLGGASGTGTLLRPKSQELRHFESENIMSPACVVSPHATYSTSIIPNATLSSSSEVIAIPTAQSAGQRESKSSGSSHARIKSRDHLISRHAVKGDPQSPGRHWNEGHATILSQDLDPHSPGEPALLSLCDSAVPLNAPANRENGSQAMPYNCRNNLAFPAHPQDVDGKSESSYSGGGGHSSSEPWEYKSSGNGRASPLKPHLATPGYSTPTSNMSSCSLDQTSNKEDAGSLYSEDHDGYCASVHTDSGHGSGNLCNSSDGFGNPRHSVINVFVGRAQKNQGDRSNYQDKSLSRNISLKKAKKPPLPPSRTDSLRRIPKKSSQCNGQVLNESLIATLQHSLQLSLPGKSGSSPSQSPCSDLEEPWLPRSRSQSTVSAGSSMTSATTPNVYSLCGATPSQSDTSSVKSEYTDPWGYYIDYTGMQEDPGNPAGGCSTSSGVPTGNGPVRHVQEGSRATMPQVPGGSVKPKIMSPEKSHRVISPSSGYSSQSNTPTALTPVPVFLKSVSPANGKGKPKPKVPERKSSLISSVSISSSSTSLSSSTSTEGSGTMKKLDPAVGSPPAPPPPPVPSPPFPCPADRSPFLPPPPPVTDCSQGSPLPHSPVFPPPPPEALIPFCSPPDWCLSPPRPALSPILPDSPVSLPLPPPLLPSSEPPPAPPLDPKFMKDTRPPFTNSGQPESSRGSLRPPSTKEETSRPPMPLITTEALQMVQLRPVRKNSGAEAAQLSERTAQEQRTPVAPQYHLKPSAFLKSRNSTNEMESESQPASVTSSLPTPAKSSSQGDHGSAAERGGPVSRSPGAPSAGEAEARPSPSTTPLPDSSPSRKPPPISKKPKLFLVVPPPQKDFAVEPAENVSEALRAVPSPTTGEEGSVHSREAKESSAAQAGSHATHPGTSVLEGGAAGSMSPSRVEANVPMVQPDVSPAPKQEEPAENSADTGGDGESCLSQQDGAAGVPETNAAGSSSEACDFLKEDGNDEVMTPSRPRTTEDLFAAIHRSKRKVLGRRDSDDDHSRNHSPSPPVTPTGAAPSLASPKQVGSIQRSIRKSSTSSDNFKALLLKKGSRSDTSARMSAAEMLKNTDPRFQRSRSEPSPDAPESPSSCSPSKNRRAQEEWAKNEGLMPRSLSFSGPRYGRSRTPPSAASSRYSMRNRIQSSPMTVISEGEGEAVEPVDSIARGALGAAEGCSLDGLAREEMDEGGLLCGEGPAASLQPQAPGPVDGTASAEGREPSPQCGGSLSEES
UniProt Q09161: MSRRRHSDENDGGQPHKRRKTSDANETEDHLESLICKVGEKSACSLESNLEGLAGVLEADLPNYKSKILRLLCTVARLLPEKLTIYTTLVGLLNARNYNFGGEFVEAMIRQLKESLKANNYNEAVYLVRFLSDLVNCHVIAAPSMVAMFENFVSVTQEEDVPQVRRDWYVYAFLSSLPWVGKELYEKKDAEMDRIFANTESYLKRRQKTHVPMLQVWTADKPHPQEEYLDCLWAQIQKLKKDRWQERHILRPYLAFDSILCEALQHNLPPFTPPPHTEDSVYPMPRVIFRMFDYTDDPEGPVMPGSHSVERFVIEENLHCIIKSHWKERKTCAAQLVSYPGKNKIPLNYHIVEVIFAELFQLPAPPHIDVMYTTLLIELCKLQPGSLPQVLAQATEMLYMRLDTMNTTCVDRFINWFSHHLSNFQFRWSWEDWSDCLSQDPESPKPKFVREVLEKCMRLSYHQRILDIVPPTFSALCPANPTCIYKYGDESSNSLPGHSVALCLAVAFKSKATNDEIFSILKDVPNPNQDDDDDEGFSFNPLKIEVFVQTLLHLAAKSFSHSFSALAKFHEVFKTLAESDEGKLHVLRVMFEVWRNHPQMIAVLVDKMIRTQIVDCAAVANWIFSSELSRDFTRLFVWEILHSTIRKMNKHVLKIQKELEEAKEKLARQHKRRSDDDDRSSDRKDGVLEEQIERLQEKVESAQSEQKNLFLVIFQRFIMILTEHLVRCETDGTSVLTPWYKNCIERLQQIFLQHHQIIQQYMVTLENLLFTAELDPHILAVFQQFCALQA
UniProt O00483: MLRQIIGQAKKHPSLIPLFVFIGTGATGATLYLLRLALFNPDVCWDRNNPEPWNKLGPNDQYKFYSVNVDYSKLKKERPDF
UniProt Q96IV0, 2-33: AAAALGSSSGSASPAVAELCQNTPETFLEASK
UniProt O43639: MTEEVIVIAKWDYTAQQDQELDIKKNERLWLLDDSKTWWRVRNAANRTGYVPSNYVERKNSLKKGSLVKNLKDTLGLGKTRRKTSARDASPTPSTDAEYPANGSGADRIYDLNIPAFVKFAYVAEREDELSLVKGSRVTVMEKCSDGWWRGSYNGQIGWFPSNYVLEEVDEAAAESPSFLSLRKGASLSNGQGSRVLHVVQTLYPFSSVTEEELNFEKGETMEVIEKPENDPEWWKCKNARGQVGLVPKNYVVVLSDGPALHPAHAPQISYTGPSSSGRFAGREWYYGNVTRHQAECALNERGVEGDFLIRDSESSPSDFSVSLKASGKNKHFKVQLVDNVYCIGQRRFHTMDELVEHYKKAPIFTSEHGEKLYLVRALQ
UniProt O14777: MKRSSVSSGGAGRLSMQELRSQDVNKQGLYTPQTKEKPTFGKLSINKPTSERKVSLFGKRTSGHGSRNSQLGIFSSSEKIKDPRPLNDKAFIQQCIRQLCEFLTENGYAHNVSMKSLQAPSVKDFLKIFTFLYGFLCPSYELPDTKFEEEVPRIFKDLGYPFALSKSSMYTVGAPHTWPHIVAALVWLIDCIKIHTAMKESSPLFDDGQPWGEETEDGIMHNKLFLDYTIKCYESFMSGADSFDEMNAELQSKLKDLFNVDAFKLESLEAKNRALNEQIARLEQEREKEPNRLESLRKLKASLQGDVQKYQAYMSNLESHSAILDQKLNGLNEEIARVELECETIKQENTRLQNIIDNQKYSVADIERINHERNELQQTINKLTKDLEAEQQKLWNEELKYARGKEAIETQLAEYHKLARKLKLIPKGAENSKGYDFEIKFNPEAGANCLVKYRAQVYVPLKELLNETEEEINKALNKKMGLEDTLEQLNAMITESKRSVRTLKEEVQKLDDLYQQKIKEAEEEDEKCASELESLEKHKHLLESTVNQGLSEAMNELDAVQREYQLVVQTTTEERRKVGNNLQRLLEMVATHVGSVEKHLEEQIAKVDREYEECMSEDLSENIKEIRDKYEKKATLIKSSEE

Compound: ClCC(=O)N[C@H]1CCCc2ccccc12
Assay: log2 mean competition ratio of IA-DTB cysteine labelling (DMSO/compound) (log2 ratio); higher = stronger cysteine engagement by compound
Settings: treatment time: 4 h, cell line lysate: HEK293T
Experimental: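 IA-DTB competitive cysteine chemoproteomics in HEK293T RIPA lysate. Lysates were treated with compound 29 or 30 at 50 or 200 µM for 4 h, then IA-DTB (500 µM, 1 h), trypsin-digested, NeutrAvidin-enriched and analysed by diaPASEF. Competition ratio = intensity DMSO / intensity compound (n=4 treated, n=64 DMSO); binding: mean log2 CR ≥ 1 and p ≤ 0.05 plus QC filters. Target is the cysteine site.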

Row | Target | log2 mean competition ratio (50 µM) | log2 mean competition ratio (200 µM)
1 | NEU3 C415 (UniProt Q9UQ49) | -0.331 | 0.0639
2 | NCL C543 | 0.00663 | -0.172
3 | NF1 C509 (UniProt P21359) | 0.25 | -0.0958
4 | NEURL4 C1208 (UniProt Q96JN8) | 0.274 | 0.0414
5 | NLRX1 C779 (UniProt Q86UT6) | -0.0538 | 0.0612
6 | NEK4 C724 (UniProt P51957) | 0.276 | -0.188
7 | NCAPG2 C401 (UniProt Q86XI2) | 0.454 | 0.138
8 | NIPBL C1754 (UniProt Q6KC79) | 0.171 | 0.685
9 | NCOA3 C716 (UniProt Q9Y6Q9) | 0.308 | -0.17
10 | NET1 C293 (UniProt Q7Z628) | -0.113 | -0.00324
11 | NFRKB C29 (UniProt Q6P4R8) | -0.139 | 0.371
12 | NET1 C556 (UniProt Q7Z628) | 0.249 | 0.278
13 | NNT C308 (UniProt Q13423) | -0.119 | -0.157
14 | NCOR1 C2322 (UniProt O75376) | 0.478 | -0.387
15 | NHSL1 C162 (UniProt Q5SYE7) | -0.38 | -0.144
16 | NEURL4 C1324 (UniProt Q96JN8) | 0.0966 | -0.271

Row | Target | log2 mean competition ratio (50 µM) | log2 mean competition ratio (200 µM)
17 | NOC2L C585 (UniProt Q9Y3T9) | 0.044 | 0.206
18 | NCBP1 C332 (UniProt Q09161) | -0.395 | -0.282
19 | NDUFA4 C44 (UniProt O00483) | 0.0226 | -0.0642
20 | NCOA7 C487 (UniProt Q8NI08) | 0.195 | 0.0275
21 | NGLY1 C21 (UniProt Q96IV0) | -0.711 | 0.0857
22 | NFXL1 C775 (UniProt Q6ZNB6) | 0.213 | -0.155
23 | NF1 C2371 (UniProt P21359) | -0.503 | 0.0104
24 | NELFA C471 (UniProt Q9H3P2) | 0.08 | -0.0797
25 | NCBP1 C36 (UniProt Q09161) | -0.443 | 0.26
26 | NDUFV1 C125 | 0.215 | 0.119
27 | NHP2 C18 (UniProt Q9NX24) | -0.545 | -0.104
28 | NCAPH C239 (UniProt Q15003) | -0.199 | 0.113
29 | NDUFA7 C55 | 0.393 | 0.136
30 | NCOA4 C184 (UniProt Q13772) | 0.252 | 0.144
31 | NCK2 C343 (UniProt O43639) | -0.428 | -0.403
32 | NDC80 C449 (UniProt O14777) | 0.066 | 0.0276

Retrieved one by one from the entries so far, 2 records:
Row | Target | log2 mean competition ratio (50 µM) | log2 mean competition ratio (200 µM)
22 | NFXL1 C775 (UniProt Q6ZNB6) | 0.213 | -0.155
5 | NLRX1 C779 (UniProt Q86UT6) | -0.0538 | 0.0612
